PubChem BioAssay AID504804 | Drosophila RNAi Screening Center | 2011
In all, the deposit lists about 19,000 reagents; shown is an unselected part of those that have a named target and a result. In the full data, 47 (0.25%) are marked active. 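Signals are raw, not normalised; exact z-scores behind calls not deposited; actives needed confirmation, so some wells reaching 2 SD are inactive.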 Names joined by + are all predicted targets of the reagent. No sequences are given here.

- Assay: 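dsRNAs that improve Kc cell survival under doxorubicin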 (primary screen)
- Cell system: Drosophila Kc cells
- Reagents: long dsRNA against Drosophila genes, 0.5 µg dsRNA per well
- Time to read-out: 96 h (48 h knock-down, then 48 h drug)
- Conditions: doxorubicin 5 µg/ml for 48 h, added 48 h after dsRNA
- Measurement: 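Luminescent ATP counts per replicate, not normalised, reflecting viable cells after 48 h dsRNA knock-down followed by 48 h of 5 µg/ml doxorubicin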
- Direction: raw ATP luminescence: higher = more viable cells, protection from doxorubicin
- Active means: 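z-score of 2 or more over plate mean in both duplicates, retained only when retests and separate dsRNAs confirm the protection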

CG14332 [DRSC14811]
- raw ATP luminescence, replicate 1: 91330
- raw ATP luminescence, replicate 2: 70230
- activity call: inactive

CG18661 [DRSC02690]
- raw ATP luminescence, replicate 1: 39010
- raw ATP luminescence, replicate 2: 48687
- activity call: inactive

Rrp40 (Ribosomal RNA processing 40) [DRSC00074]
- raw ATP luminescence, replicate 1: 2.91e5
- raw ATP luminescence, replicate 2: 3.21e5
- activity call: inactive

Prosbeta4R2 (Proteasome beta4 subunit-related 2) [DRSC00503]
- raw ATP luminescence, replicate 1: 1.14e5
- raw ATP luminescence, replicate 2: 73020
- activity call: inactive

ple (pale) [DRSC11383]
- raw ATP luminescence, replicate 1: 62117
- raw ATP luminescence, replicate 2: 63197
- activity call: inactive

ms(2)35Ci (male sterile (2) 35Ci) [DRSC01460]
- raw ATP luminescence, replicate 1: 2.22e5
- raw ATP luminescence, replicate 2: 2.34e5
- activity call: inactive

Regnase-1 (Regnase 1) [DRSC14278]
- raw ATP luminescence, replicate 1: 58553
- raw ATP luminescence, replicate 2: 60997
- activity call: inactive

ETHR [DRSC15915]
- raw ATP luminescence, replicate 1: 26840
- raw ATP luminescence, replicate 2: 22090
- activity call: inactive

CG12948 [DRSC14576]
- raw ATP luminescence, replicate 1: 63273
- raw ATP luminescence, replicate 2: 74360
- activity call: inactive

smid (smallminded) [DRSC11398]
- raw ATP luminescence, replicate 1: 93317
- raw ATP luminescence, replicate 2: 95973
- activity call: inactive

CG12104 [DRSC08254]
- raw ATP luminescence, replicate 1: 47160
- raw ATP luminescence, replicate 2: 58630
- activity call: inactive

SK (small conductance calcium-activated potassium channel) [DRSC17387]
- raw ATP luminescence, replicate 1: 2.36e5
- raw ATP luminescence, replicate 2: 2.13e5
- activity call: inactive

SK (small conductance calcium-activated potassium channel) [DRSC17751]
- raw ATP luminescence, replicate 1: 35690
- raw ATP luminescence, replicate 2: 44120
- activity call: inactive

SK (small conductance calcium-activated potassium channel) [DRSC17887]
- raw ATP luminescence, replicate 1: 34150
- raw ATP luminescence, replicate 2: 34510
- activity call: inactive

SK (small conductance calcium-activated potassium channel) [DRSC17888]
- raw ATP luminescence, replicate 1: 36380
- raw ATP luminescence, replicate 2: 44190
- activity call: inactive

tos (tosca) [DRSC03624]
- raw ATP luminescence, replicate 1: 68793
- raw ATP luminescence, replicate 2: 62053
- activity call: inactive

moon (moonshiner) [DRSC19497]
- raw ATP luminescence, replicate 1: 3.37e5
- raw ATP luminescence, replicate 2: 3.11e5
- activity call: inactive

bdwf (bedwarfed) [DRSC15532]
- raw ATP luminescence, replicate 1: 36340
- raw ATP luminescence, replicate 2: 41257
- activity call: inactive

Ak3 (Adenylate kinase 3) [DRSC16075]
- raw ATP luminescence, replicate 1: 49030
- raw ATP luminescence, replicate 2: 52337
- activity call: inactive

CR30374 (pseudo) [DRSC05080]
- raw ATP luminescence, replicate 1: 95077
- raw ATP luminescence, replicate 2: 1.05e5
- activity call: inactive

CG43999 [DRSC14605]
- raw ATP luminescence, replicate 1: 58760
- raw ATP luminescence, replicate 2: 56940
- activity call: inactive

Synd (Syndapin) [DRSC15116]
- raw ATP luminescence, replicate 1: 58870
- raw ATP luminescence, replicate 2: 65460
- activity call: inactive

Gpb5 (Glycoprotein hormone beta 5) [DRSC21241]
- raw ATP luminescence, replicate 1: 2.21e5
- raw ATP luminescence, replicate 2: 2.03e5
- activity call: inactive

Vps53 (Vacuolar protein sorting 53) [DRSC00595]
- raw ATP luminescence, replicate 1: 1.21e5
- raw ATP luminescence, replicate 2: 73837
- activity call: inactive

Uev1A (Ubiquitin-conjugating enzyme variant 1A) [DRSC09763]
- raw ATP luminescence, replicate 1: 44127
- raw ATP luminescence, replicate 2: 43550
- activity call: inactive

CG12672 [DRSC19482]
- raw ATP luminescence, replicate 1: 3.34e5
- raw ATP luminescence, replicate 2: 3.40e5
- activity call: inactive

CG31496 [DRSC12547]
- raw ATP luminescence, replicate 1: 2.07e5
- raw ATP luminescence, replicate 2: 2.28e5
- activity call: inactive

CG31869 [DRSC02582]
- raw ATP luminescence, replicate 1: 42410
- raw ATP luminescence, replicate 2: 76317
- activity call: inactive

CG31869 [DRSC02674]
- raw ATP luminescence, replicate 1: 40873
- raw ATP luminescence, replicate 2: 80660
- activity call: inactive

Ada3 (transcriptional Adaptor 3) [DRSC20321]
- raw ATP luminescence, replicate 1: 3.54e5
- raw ATP luminescence, replicate 2: 3.18e5
- activity call: inactive

Ada3 (transcriptional Adaptor 3) [DRSC20322]
- raw ATP luminescence, replicate 1: 3.79e5
- raw ATP luminescence, replicate 2: 3.17e5
- activity call: inactive

CG32576 + UQCR-14 [DRSC19870]
- raw ATP luminescence, replicate 1: 3.03e5
- raw ATP luminescence, replicate 2: 3.39e5
- activity call: inactive

CG43901 [DRSC19397]
- raw ATP luminescence, replicate 1: 3.38e5
- raw ATP luminescence, replicate 2: 3.05e5
- activity call: inactive

CG43901 [DRSC19652]
- raw ATP luminescence, replicate 1: 65760
- raw ATP luminescence, replicate 2: 75840
- activity call: inactive

kin17 [DRSC11890]
- raw ATP luminescence, replicate 1: 58330
- raw ATP luminescence, replicate 2: 56500
- activity call: inactive

Pp2B-14D (Protein phosphatase 2B at 14D) [DRSC20270]
- raw ATP luminescence, replicate 1: 2.41e5
- raw ATP luminescence, replicate 2: 2.04e5
- activity call: inactive
